Laboratory results published in PubChem BioAssay AID595 (National Center for Advancing Translational Sciences (NCATS), 2007).
Hit rate of the full screen: of about 71,000 compounds, about 310 (0.44%) were called active. The inconclusive results got no clear call from the source; some entries with a clear call stand among them for comparison. Calls follow the shape of the dose curve; as a rule, active = well fitted curve in either direction with a large enough effect; inconclusive = small, poorly fitted or top-dose-only effect, or another doubt; inactive = flat fitted curve, though single readings scatter. Where the call is inconclusive, the potency comes from a doubtful curve fit.

Tested on: Hsp90 C-terminal peptide / TPR2A (Hop) interaction, human
Assay: qHTS Assay for Disrupters of an Hsp90 Co-Chaperone Interaction
Conditions: AlphaScreen TPR2A-His6 binding biotin-Hsp90 C-terminal peptide; activity change, negative = inhibition: at 57 µM (top of the series) unless noted
% is scaled to controls: 0 for no effect and ±100 for the full control effect; potency is read from the fitted curve at half-maximal effect.

| Compound | activity change, negative = inhibition | Potency |
| --- | --- | --- |
| CC(C)n1c(SCC(=O)c2ccc3c(c2)OCCO3)nc2c1c(=O)n(C)c(=O)n2C | inconclusive: 79.4% | – |
| Cc1nn(C)c(C)c1NC(=O)CSc1nc(Cc2ccccc2)nc2c1cnn2-c1ccccc1 | – | inconclusive: 6.31 µM [inhibitor, single point] |
| CCOc1ccc(-c2[nH]nc3c2C(c2ccc4c(c2)OCO4)C(C#N)=C(N)O3)cc1OC (configuration not stated) | inconclusive: 31.8% | – |
| Cc1ccc(-c2cc(C(=O)OCC(=O)Nc3cc(C)on3)c3ccccc3n2)c(C)c1 | inactive: -1.23% | – |
| CCn1c2ccccc2c2nc3ccccc3nc21 | – | inconclusive: 15.8 µM [activator, partial curve] |
| CCCc1[nH]nc2c1C(c1ccc(Br)s1)C(C#N)=C(N)O2 (configuration not stated) | inconclusive: 17.6% | – |
| O=C(c1ccco1)N1CCC[C@@]2(CCN(c3ncccn3)C2)C1 | inactive: -1.15% | – |
| COc1ccc(C(=O)N2CCC[C@@]3(CCN(C(=O)NC(C)C)C3)C2)cc1 | inactive: -3.02% | – |
| O=C(NCC(c1cccnc1)N1CCN(c2ccc(F)cc2)CC1)c1cccc(Cl)c1 (configuration not stated) | inconclusive: 25.8% | – |
| CC(C)c1ccc(-c2noc(C3CCCN(C(=O)c4ccc(F)cc4F)C3)n2)cc1 (configuration not stated) | – | inconclusive: 25.1 µM [activator, single point] |
| Cc1cc(C)n(C(=O)Cc2cn3ccsc3n2)n1 | inconclusive: 13.5% | – |
| O=C(Nc1ccc2c(c1)OCO2)c1cnn2c1NC(c1ccco1)CC2C(F)(F)F (configuration not stated) | inconclusive: 33.8% | – |
| Cc1ccc(-c2nnc3sc(C4COc5ccccc5O4)nn23)cc1 (configuration not stated) | inactive: 5.71% | – |
| CCOC(=O)Cc1csc(NC(=O)c2c(-c3c(F)cccc3Cl)noc2C)n1 | inconclusive: 47.5% | – |
| COc1cccc(N2CCN(Cc3nc(N)nc(Nc4ccccc4OC)n3)CC2)c1 | – | inconclusive: 39.8 µM [inhibitor, single point] |
| COc1ccc(/C(O)=C(\C#N)c2nc3ccccc3n2C)cc1OC | inconclusive: 7% | – |
| COc1ccccc1Nc1nc(N)nc(CSc2nccc(C)n2)n1 | inactive: -0.863% | – |
| O=C(c1ccco1)N1CCN(C(=O)C2CC(c3ccc(F)cc3)=NO2)CC1 (configuration not stated) | inconclusive: 48.3% [at 2.3 µM] | – |
| CCOC(=O)c1sc(NS(=O)(=O)c2ccc(NC(C)=O)cc2)nc1C | inconclusive: 60.6% | – |
| Cc1ccc2c(c1)N(CC(=O)NCC1COc3ccccc3O1)C(=O)CO2 (configuration not stated) | inactive: 1.65% | – |
| Cc1cccc(-n2c(CCCN3C(=O)c4ccccc4C3=O)nc3ccccc3c2=O)n1 | inconclusive: 51.7% | – |

| Compound | activity change, negative = inhibition | Potency |
| --- | --- | --- |
| COc1ccc2[nH]cc(CCNc3ncncc3-c3ccc(C(=O)N(C)C)cc3)c2c1 | inactive: -3.42% | – |
| COC(=O)[C@@H]1C[C@H]1[C@@H](NC(=O)c1cccnc1)c1ccccc1 | inactive: -4.9% | – |
| CC(=O)n1c2ccccc2c2c(C#N)c(N3CCCCC3)sc21 | inactive: -1.55% | – |
| Nc1c2ccccc2nc2ccccc12 | inactive: -2.8% | – |
| COc1cccc(Nc2ncc3nc(-c4ccccc4)c(=O)n(C[C@H]4CCCO4)c3n2)c1 | – | active: 12.6 µM [activator] |
| CC(=O)Nc1cccc(NC(=O)C2CCCN2C(=O)Nc2ccccc2C)c1 (configuration not stated) | inactive: -0.764% | – |
| O=C(Nc1ccc2c(c1)OCO2)N1CCN(C/C=C/c2ccccc2)CC1 | inconclusive: 9.22% | – |
| O=C(Nc1ccccn1)c1cccnc1 | inconclusive: 49.7% | – |
| CC(NC(=O)c1cccc(C(F)(F)F)c1)C1CCCO1 (configuration not stated) | inactive: 1.88% | – |
| CC(C)c1nc(=S)c2ccccc2[nH]1 | inactive: -2.87% | – |
| C=C(C)CN(CC#N)CC(=C)C | inactive: 0.016% [at 11 µM] | – |
| CCOc1ccc2c(ccc(/C=C\c3cc(C)c4cccnc4c3O)[n+]2C)c1 | – | inconclusive: 3.98 µM [inhibitor, single point] |
| CC(CSc1nc2ccccc2s1)Cn1c(N2CCCC2)nc2c1c(=O)[nH]c(=O)n2C (configuration not stated) | inconclusive: 46% | – |
| CNC1=C(Br)C(=O)c2ccncc2C1=O | – | inconclusive: 25.1 µM [inhibitor, partial curve] |
| C=CC(C)(C)c1[nH]c2ccccc2c1C1=C(O)C(=O)C(c2c[nH]c3c(CC=C(C)C)cccc23)=C(O)C1=O | – | inconclusive: 31.6 µM [inhibitor, partial curve] |
| O=C(Cc1ccc(Cl)cc1)Nc1ccc(N2CCN(C(=O)c3ccco3)CC2)cc1 | inconclusive: 11.4% | – |
| Cc1noc(C)c1CSCC(=O)N1CCN(c2ccc(F)cc2)CC1 | inactive: -3.04% | – |
| Fc1ccccc1N1CCN(c2nc3ccccc3n3nnnc23)CC1 | – | inconclusive: 31.6 µM [activator, single point] |
| O=C1c2ccccc2C(=O)N1CCC(c1ccc(F)cc1)c1ccco1 (configuration not stated) | – | inconclusive: 25.1 µM [activator, single point] |
| CCN(c1cccc(C)c1)S(=O)(=O)c1ccc2[nH]c(=O)c(=O)[nH]c2c1 | inactive: -7.26% | – |
| COc1ccc(-c2csc(N(CC3CCCO3)C(=O)c3ccco3)n2)cc1 (configuration not stated) | inconclusive: 92.2% | – |

| Compound | activity change, negative = inhibition | Potency |
| --- | --- | --- |
| Nc1nc2c(ncn2[C@H]2CC[C@@H](CO)O2)c(=O)n1C(=O)c1ccccc1 | inactive: -4.52% [at 11 µM] | – |
| Cc1c(Cc2ccccc2)c(=O)oc2c(CN(C)C)c(O)c(Cl)cc12 | inactive: 2.82% | – |
| CCn1ncc(Br)c1C(=O)Nc1sc2c(c1C(N)=O)CCC2 | inconclusive: 45.7% | – |
| COC(=O)c1cc(OC)c(OC)cc1NC(=O)c1ccco1 | inconclusive: 28.9% | – |
| CS(=O)(=O)c1ccc2nc(NC(=O)CN3CCN(Cc4ccccc4)CC3)sc2c1 | inconclusive: 43.4% | – |
| Cc1ccc2c(c1)cc(CN(Cc1ccco1)C(=O)COc1ccccc1)c1nnnn12 | inconclusive: 46.5% | – |
| Cc1cc2cc(CNC(=O)c3cccs3)ccc2n1C | inactive: -15.2% | – |
| CCc1ccc(-c2nc(CSCC(=O)N3CCN(c4ncccn4)CC3)c(C)o2)cc1 | inconclusive: 43.6% | – |
| CC(C)OC(=O)CSc1nnc(-c2ccccn2)n1-c1ccccc1 | – | inconclusive: 31.6 µM [inhibitor, single point] |
| Oc1c(CN2CCCCC2)cc(Br)c2cccnc12 | – | active: 3.16 µM |
| CC(NC(=O)C1CCC(=O)N1Cc1ccc(F)cc1)c1ccc2c(c1)OCCO2 (configuration not stated) | inconclusive: 46.7% | – |
| Cc1onc(-c2ccccc2Cl)c1C(=O)Nc1cccc2cccnc12 | – | inconclusive: 20 µM [activator, single point] |
| O=C(NC1CCS(=O)(=O)C1)OC1CCCCC1 (configuration not stated) | inactive: 0.272% | – |
| C=CCn1sc(=N)c(C#N)c1N | inconclusive: 26.2% | – |
| COC(=O)c1sccc1NC(=O)c1cc2c(s1)CCCC2 | – | inconclusive: 31.6 µM [activator, single point] |
| COc1ccc(N2C(=O)C3CCCN3C2c2ccc(Cl)cc2)cc1 (configuration not stated) | inconclusive: 49.4% | – |
| CC(=O)c1cnc(Nc2nc(C)c3ccccc3n2)nc1C | inconclusive: 38.9% | – |
| COc1ccc(C(=O)CN2C(=O)C(C)(C)Oc3ccc(C(=O)N4CCCCCC4)cc32)cc1 | inactive: -3.15% | – |
| CCOC(=O)CN1C(=O)NC(C)(c2ccc(OC(F)F)cc2)C1=O (configuration not stated) | inconclusive: 41% | – |
| CN(C)CC(CN(C)C)c1ccccn1 | inactive: -2.8% [at 11 µM] | – |
| Cc1cccc(N2CSC3=C(C#N)C(c4ccc(C)o4)CC(=O)N3C2)c1 (configuration not stated) | – | inconclusive: 31.6 µM [inhibitor, single point] |

| Compound | activity change, negative = inhibition | Potency |
| --- | --- | --- |
| Cc1nn(-c2ccccc2)c(C)c1/C=N/O | inconclusive: 36.3% | – |
| CCC/C=C(\CCC)C(NS(=O)(=O)c1cccs1)c1ccc(C(=O)OC)cc1 (configuration not stated) | inconclusive: 190% | – |
| O=[N+]([O-])c1ccccc1Nc1ccccc1 | – | inconclusive: 31.6 µM [inhibitor, partial curve] |
| COc1ccc(NC(=O)C(c2ccccc2)N(C)C(=O)c2cnccn2)cc1 (configuration not stated) | inconclusive: 51.8% | – |
| COC(=O)N(C)CCCC1(C)C(=O)N(C)c2ccc(O)cc21 (configuration not stated) | inconclusive: 51.2% | – |
| Cn1c(=O)c2c(O)cc(=O)n(-c3ccccc3)c2n(C)c1=O | inconclusive: 41.8% | – |
| c1ccc(-n2cnc3cc(NCc4ccccn4)ccc32)cc1 | – | inconclusive: 31.6 µM [inhibitor, single point] |
| Cc1cc(-n2c(C)cc(C(=O)CSc3ncnc4ccccc34)c2C)no1 | inactive: -1.89% | – |
| CC(=O)C(Sc1nn(C)c(=S)s1)C(=O)Nc1ccccc1 (configuration not stated) | inactive: -5.41% | – |
| COc1ccc(CNC(=O)Nc2cccs2)cc1OC | inactive: -2.65% | – |
| COc1ccc(Cl)c(Cn2c(NCc3ccccn3)nc3c2c(=O)n(C)c(=O)n3C)c1 | – | inconclusive: 20 µM [inhibitor, partial curve] |
| O=C(NCCCn1ccnc1)Nc1ccc(Cl)c(Cl)c1 | – | active: 7.94 µM |
| COCc1cc(C)nc2sc(C(=O)N3CCN(c4ccccc4)CC3)c(N)c12 | – | inconclusive: 20 µM [activator, partial curve] |
| N#Cc1nc(COc2ccc(Br)cc2)oc1N1CCCCCC1 | – | inconclusive: 12.6 µM [inhibitor, partial curve] |
| COCCNC(=O)C1c2cc(OC)c(OC)cc2C(=O)N(C)C1c1cccnc1 (configuration not stated) | inconclusive: 44.1% | – |
| O=C(CSc1nc2ccccc2o1)Nc1ccccc1N1CCCCCC1 | – | inconclusive: 39.8 µM [activator, single point] |
| COc1ccc(OC)c(NC(=O)CSc2nnc(CNC(=O)c3ccco3)o2)c1 | inconclusive: 50.7% | – |
| CCOc1ccc(NC(=O)CCS(=O)(=O)c2ccc3c(c2)CCCN3C(C)=O)cc1 | inconclusive: 38.5% | – |
| COc1cccc2c1C(=O)c1c(O)c3c(c(O)c1C2=O)C[C@@](O)(C(C)=O)C[C@@H]3O[C@H]1C[C@H](N)[C@H](O)[C@H](C)O1 | – | inconclusive: 31.6 µM [inhibitor, partial curve] |

In another format: results already given.
Compound	activity change, negative = inhibition	Potency
Cc1nn(-c2ccccc2)c(C)c1/C=N/O	inconclusive: 36.3%	–
CCC/C=C(\CCC)C(NS(=O)(=O)c1cccs1)c1ccc(C(=O)OC)cc1 (configuration not stated)	inconclusive: 190%	–
COc1ccc(NC(=O)C(c2ccccc2)N(C)C(=O)c2cnccn2)cc1 (configuration not stated)	inconclusive: 51.8%	–
Cn1c(=O)c2c(O)cc(=O)n(-c3ccccc3)c2n(C)c1=O	inconclusive: 41.8%	–
Cc1cc(-n2c(C)cc(C(=O)CSc3ncnc4ccccc34)c2C)no1	inactive: -1.89%	–
O=C(CSc1nc2ccccc2o1)Nc1ccccc1N1CCCCCC1	–	inconclusive: 39.8 µM [activator, single point]
